Data as given in PubChem BioAssay AID686937 (Drosophila RNAi Screening Center, 2013)

- Purpose: 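Genes whose loss weakens secretory pathway function in fly cells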 (primary screen)
- Cells: Drosophila S2 cells expressing secreted horseradish peroxidase
- Reagent: long dsRNA against Drosophila genes
- Duration: about 5.5 days (5 days dsRNA, then 12 h reporter induction)
- Treatment: reporter expression induced after 5 days of dsRNA, read 12 h later; inducer not stated
- Measured: 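Chemiluminescent measurement of peroxidase in the medium 12 h after reporter induction, following 5 days of dsRNA, given as a z-score per plate; higher means more secretion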
- Direction: z-score: higher = more reporter secreted into medium
The screen tested about 23,000 reagents; below is a random part of those that have a named target and a result. 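Reduced-secretion tags in replicate 1 do not always agree with the z-scores; no criterion for assigning the tags was given.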 Further read-outs or replicates are left out here. Not given: the amount of reagent.

Vps24 [DRSC12332]
- z-score, replicate 1: 0.72

ebi [DRSC00816]
- z-score, replicate 1: -0.28

CR1075 [DRSC12144]
- z-score, replicate 1: 0.06

Fen1 [DRSC07415]
- z-score, replicate 1: -1.55

Vap33 [DRSC18384]
- z-score, replicate 1: 0.28

CG2656 [DRSC12584]
- z-score, replicate 1: 0.03

aus [DRSC13471]
- z-score, replicate 1: 0.06

aus [DRSC13473]
- z-score, replicate 1: -0.21

aus [DRSC15157]
- z-score, replicate 1: 0.09

BoYb [DRSC11637]
- z-score, replicate 1: 0.41

Dolk [DRSC07143]
- z-score, replicate 1: 0.02

Ubi-p63E [DRSC22016]
- z-score, replicate 1: -0.62

CG13511 [DRSC04153]
- z-score, replicate 1: 0.04

Polr1E [DRSC14506]
- z-score, replicate 1: 0.23

Polr1E [DRSC15358]
- z-score, replicate 1: 0.34

CG11741 [DRSC14367]
- z-score, replicate 1: -0.03

CG8668 [DRSC03101]
- z-score, replicate 1: 0.17

Tsp29Fb [DRSC03233]
- z-score, replicate 1: 0.47

CG6329 [DRSC06976]
- z-score, replicate 1: 0.36

Ahcy [DRSC19329]
- z-score, replicate 1: 0.17

CG15754 [DRSC19719]
- z-score, replicate 1: 0.3

CkIIalpha [DRSC11946]
- z-score, replicate 1: -0.57

CG2685 [DRSC18463]
- z-score, replicate 1: -1.54

CG10089 [DRSC09694]
- z-score, replicate 1: 0.12

CG10089 [DRSC09695]
- z-score, replicate 1: 0.21

CG8065 [DRSC10959]
- z-score, replicate 1: -0.08

mtd [DRSC12131]
- z-score, replicate 1: 0.5

mtd [DRSC12380]
- z-score, replicate 1: 0.58

mtd [DRSC12381]
- z-score, replicate 1: 0.38

Ccdc114 [DRSC15025]
- z-score, replicate 1: 0.42

Nca [DRSC11233]
- z-score, replicate 1: 0.31

DIP-iota [DRSC02140]
- z-score, replicate 1: 0.31

CG9550 [DRSC03262]
- z-score, replicate 1: 0.52

mwh [DRSC07949]
- z-score, replicate 1: 0.47

mwh [DRSC08382]
- z-score, replicate 1: 0.58

pippin [DRSC04489]
- z-score, replicate 1: 0.24

CG12517 [DRSC02173]
- z-score, replicate 1: 0.03

CG3918 [DRSC18331]
- z-score, replicate 1: -2.26

CG30088 [DRSC21764]
- z-score, replicate 1: -0.22

CheB53b [DRSC05613]
- z-score, replicate 1: 0.83

Laid out differently: results already given.
{"predicted target": "CG15754", "amplicon": "DRSC19719", "z-score, replicate 1": 0.3}
{"predicted target": "CkIIalpha", "amplicon": "DRSC11946", "z-score, replicate 1": -0.57}
